# Experimental data: PubChem BioAssay AID686943 (Drosophila RNAi Screening Center, 2013)
# Test: 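Search across the genome for regulators of signalling from receptor tyrosine kinase to ERK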 (primary screen)
# System: Drosophila S2R+ haemocyte-like cells expressing YFP-tagged ERK (Rolled)
# Reagents: long dsRNA against Drosophila genes
# Conditions: insulin stimulation versus unstimulated cells; dose and duration not given
# Measured: 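Antibody staining for doubly phosphorylated ERK divided by ERK-YFP signal, as plate z-scores, in insulin-treated and untreated cells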
# Scale: replicate 1, z-score of dpERK with insulin and replicate 2, z-score of dpERK with insulin: higher = more active ERK per ERK-YFP after insulin; replicate 1, z-score of dpERK under basal conditions: higher = more basal active ERK per ERK-YFP; replicate 1, z-score of ERK-YFP with insulin: higher = more YFP-tagged ERK signal
# In all, the deposit lists about 23,000 reagents; below is an unselected part of those that have a named target and a result. 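Extra replicates exist only for a retested subset of genes; insulin dose and duration not given; both raised and lowered dpERK matter.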 Not stated in the record: the amount of reagent, the time to read-out.
"replicate 1, z-score of dpERK with insulin","replicate 2, z-score of dpERK with insulin","replicate 1, z-score of dpERK under basal conditions","replicate 1, z-score of ERK-YFP with insulin",gene,amplicon
-0.58,0.55,-0.75,0.45,Pfdn5 (Prefoldin 5),DRSC16183
0.15,-0.27,-0.13,0.66,Prm (Paramyosin),DRSC08941
0.3,0.5,-0.2,0.1,Prm (Paramyosin),DRSC08942
-0.06,0.74,-0.03,0.44,Prm (Paramyosin),DRSC11255
-0.05,0.06,1.25,1.04,Cyp12a5 (Cytochrome P450 12a5),DRSC16621
-0.12,-0.38,0.03,0.09,CG34282,DRSC16298
0.5,-0.29,-0.05,-0.09,Polr3I (RNA polymerase III subunit I),DRSC19922
-0.26,-0.29,0.01,0.18,CG33017,DRSC06573
-0.22,0.38,0.64,0.25,CG33017,DRSC06574
-1.42,-0.79,1.01,1.12,mxc (multi sex combs),DRSC17819
-0.16,-0.42,-0.43,1.03,cpb (capping protein beta),DRSC00809
0.3,-1.15,-2.52,1.46,rept (reptin),DRSC11388
-0.23,-0.41,0.25,-0.49,CG4770,DRSC15639
-0.95,0,0.42,0.02,Mrp5 (Multidrug resistance protein 5),DRSC15597
0.42,-0.45,0.18,0.31,Mrp5 (Multidrug resistance protein 5),DRSC15598
0.01,-0.33,0.12,0.07,"IP3K1 (Inositol 1,4,5-triphosphate kinase 1)",DRSC02734
1.06,-0.06,0.44,-0.89,dpr8 (defective proboscis extension response 8),DRSC19406
0.62,-0.03,1.21,0.83,dpr8 (defective proboscis extension response 8),DRSC19600
0.11,-0.12,-0.28,0.28,dpr8 (defective proboscis extension response 8),DRSC19938
-0.4,0.02,0.53,-0.04,dpr8 (defective proboscis extension response 8),DRSC19939
-0.24,-0.21,-0.55,0.14,CG18823,DRSC18168
-0.64,-0.88,-0.5,-0.4,CG7523,DRSC16254
0.98,-0.28,1.37,0.95,Dab (Disabled),DRSC11140
-0.03,0,0.2,0.1,Vps45 (Vacuolar protein sorting 45),DRSC16398
-1.04,0.68,-0.59,0.3,Npl4 (Nuclear protein localization 4),DRSC15615
-0.18,-0.3,-0.72,0.21,Npl4 (Nuclear protein localization 4),DRSC15616
0.59,0.83,-0.16,0.11,CG1764,DRSC19779
0.98,-0.19,0.12,-0.52,CG32650,DRSC19899
0.57,0.87,0.55,-0.46,CG31807,DRSC01550
0,1.22,-0.68,0.3,CG13018,DRSC06274
0.33,-0.21,0.42,-0.17,Nak (Numb-associated kinase),DRSC03379
0.59,0.04,-0.06,0.11,FANCI (Fanconi anemia complementation group I),DRSC06416
0.02,0.22,-1.05,0.19,Tango5 (Transport and Golgi organization 5),DRSC18023
-0.53,-1.21,-1.2,-2.32,CG4593,DRSC18374
0.33,1.84,-0.73,0.56,CG17283,DRSC15219
0.2,0.47,0.68,-0.02,Ctf4 (Chromosome transmission fidelity 4),DRSC06380
0.98,0.29,0.25,-0.69,CG42694,DRSC03955
-0.17,-0.07,0.01,1.22,Pcp (Pupal cuticle protein),DRSC03395
0.31,0.61,1.25,-0.13,jing,DRSC04923
-0.9,-1.08,-0.22,0.15,jing,DRSC04927
0.33,0.51,-0.16,-0.14,jing,DRSC05000
0.22,0.13,-1.11,0.07,CG13426,DRSC06388
1.03,-0.37,0.11,0.17,Mrp4 (Multidrug resistance protein 4),DRSC14931
0.2,0.02,-0.48,0.25,didum (dilute class unconventional myosin),DRSC07603
1.61,0.07,0.63,-0.31,atl (atlastin),DRSC16089
-0.19,-1.12,-0.7,-3.43,Fib (Fibrillarin),DRSC04614
-0.31,-0.46,0.77,-0.04,CG8388,DRSC07157
-0.63,-0.06,1.19,1.31,ACOX1 (acyl-CoA oxidase 1),DRSC05941
0.99,0.5,0.04,0.65,Jon25Bii (Jonah 25Bii),DRSC03114
0.26,0.69,-0.05,0.36,CG32647,DRSC19690
-0.59,-0.73,-1.2,-0.93,CG32647,DRSC19878
0.47,0.19,-0.68,0,Shark (SH2 ankyrin repeat kinase),DRSC07680
-0.22,0.29,-0.47,-0.06,lncRNA:CR43613 (long non-coding RNA:CR43613),DRSC13943
-0.69,0.32,1.64,0.16,TBC1D16 (TBC1 domain family member 16),DRSC02841
0.19,-0.23,-0.35,0.36,Dmtn (Dementin),DRSC12513
-1.01,-0.41,0.29,0.7,"betaNACtes4 (Nascent-associated complex beta-subunit-like, testis 4)",DRSC19801
-1.27,-0.12,-1.68,-0.77,Cyp6a18 (Cytochrome P450 6a18),DRSC16632

9 consecutive entries from above, for reference:
"replicate 1, z-score of dpERK with insulin","replicate 2, z-score of dpERK with insulin","replicate 1, z-score of dpERK under basal conditions","replicate 1, z-score of ERK-YFP with insulin",gene,amplicon
-0.05,0.06,1.25,1.04,Cyp12a5 (Cytochrome P450 12a5),DRSC16621
-0.12,-0.38,0.03,0.09,CG34282,DRSC16298
0.5,-0.29,-0.05,-0.09,Polr3I (RNA polymerase III subunit I),DRSC19922
-0.26,-0.29,0.01,0.18,CG33017,DRSC06573
-0.22,0.38,0.64,0.25,CG33017,DRSC06574
-1.42,-0.79,1.01,1.12,mxc (multi sex combs),DRSC17819
-0.16,-0.42,-0.43,1.03,cpb (capping protein beta),DRSC00809
0.3,-1.15,-2.52,1.46,rept (reptin),DRSC11388
-0.23,-0.41,0.25,-0.49,CG4770,DRSC15639
